This passage reports binding results from paper PMC5483465.

These are yes or no findings as the source states them, for the method shown. Binding can be weak; no strength is given.

This assay deals with T1, La ribonucleoprotein autoantigen (UniProt P05455).
T1 sequence: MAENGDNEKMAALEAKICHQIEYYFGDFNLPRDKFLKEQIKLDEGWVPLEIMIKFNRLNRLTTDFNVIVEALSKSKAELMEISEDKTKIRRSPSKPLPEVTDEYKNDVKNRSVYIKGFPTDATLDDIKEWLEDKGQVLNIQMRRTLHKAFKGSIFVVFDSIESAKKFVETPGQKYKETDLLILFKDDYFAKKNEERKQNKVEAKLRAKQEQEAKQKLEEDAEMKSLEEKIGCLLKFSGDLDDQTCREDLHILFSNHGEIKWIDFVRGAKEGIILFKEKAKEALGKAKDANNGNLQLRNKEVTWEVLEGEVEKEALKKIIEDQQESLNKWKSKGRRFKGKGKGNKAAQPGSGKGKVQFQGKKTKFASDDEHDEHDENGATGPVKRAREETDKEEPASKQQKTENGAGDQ
Put plainly: SPR; BIAcore 2000; ribonucleoproteins immobilised on a CM-4 chip by amine coupling (50-3,000 RU); Hb flowed at 20-30 ul/min, 25°C; regeneration 10 mM NaOH; 1:1 (Langmuir) Binding Model; both purified. (In general: SPR reads the build-up and loss of mass on a sensor chip optically.)

As for “ferric (Fe^3+) hemoglobin, murine (mouse) (complex)”, the binding result was “binds”. With “ferrous (Fe^2+) hemoglobin, murine (mouse) (complex)” the entry was “binds”.
